Measurements reported in PubChem BioAssay AID1259405 (NCATS, 2018)
This is one part, drawn at random, of about 50,000 reagents tested. About 4,000 of all reagents (8%) were called active. 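Mouse siRNA library applied to hamster cells; one well for each siRNA.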 The numbers tell different reagents against one gene apart.

- Assay: 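Silenced genes that increase secreted GFP made by CHO cells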 (primary screen)
- System: Chinese hamster CHO-K1 ovary cells with stable secreted eGFP expression
- Reagents: single siRNA against mouse genes, 0.8 pmol siRNA per well (2 µl of 400 nM stock)
- Duration: 3 days
- Measurement: 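Percent of the per-plate non-targeting control median for intracellular GFP per well by laser scanning cytometry and for cell viability by ATP luminescence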
- Scale: GFP, % of control: higher = more GFP per well, higher productivity; viability (ATP), % of control: higher = more viable cells (more ATP)
- Active means: 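a knock-down is called active if GFP reaches 120% or more of non-targeting control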

With knock-down of Aqp12 #1 the results were GFP, % of control 69; viability (ATP), % of control 80.4; inactive.
Depletion of Aqp12 #2 gave: GFP, % of control 103; viability (ATP), % of control 88.2; inactive.
Aqp12 #3 gave GFP, % of control 190; viability (ATP), % of control 79.6; active.
With knock-down of Klra8 #1 the results were GFP, % of control 75.3; viability (ATP), % of control 67.7; inactive.
Against Klra8 #2, the entry reads GFP, % of control 154; viability (ATP), % of control 94.5; active.
With knock-down of Klra8 #3, the record shows GFP, % of control 61.9; viability (ATP), % of control 65.2; inactive.
For Rad51c #1, the values are GFP, % of control 94.4; viability (ATP), % of control 51.2; inactive.
Rad51c #2 gave GFP, % of control 78.1; viability (ATP), % of control 92.3; inactive.
After knock-down of Rad51c #3 the results were GFP, % of control 54.1; viability (ATP), % of control 42.3; inactive.
After knock-down of Nckap5 #1 the results were GFP, % of control 91.6; viability (ATP), % of control 95.3; inactive.
Nckap5 #2 showed GFP, % of control 70.4; viability (ATP), % of control 72.2; inactive.
With knock-down of Nckap5 #3, the screen gave GFP, % of control 67.4; viability (ATP), % of control 57.5; inactive.
Nckap5 #4 scored GFP, % of control 100; viability (ATP), % of control 58.9; inactive.
Silencing of Nckap5 #5 came out at: GFP, % of control 88.9; viability (ATP), % of control 88.7; inactive.
After knock-down of Nckap5 #6, the screen gave GFP, % of control 125; viability (ATP), % of control 96.2; active.
For Timm23 #1 the deposit lists GFP, % of control 91.6; viability (ATP), % of control 57; inactive.
Timm23 #2 scored GFP, % of control 53.1; viability (ATP), % of control 60.2; inactive.
Silencing of Timm23 #3 came out at: GFP, % of control 87.6; viability (ATP), % of control 62.5; inactive.
Against Or56b2 #1, the values are GFP, % of control 83.5; viability (ATP), % of control 90.1; inactive.
Depletion of Or56b2 #2 gave: GFP, % of control 47.7; viability (ATP), % of control 51.3; inactive.
Knock-down of Or56b2 #3 came out at: GFP, % of control 53.6; viability (ATP), % of control 58.7; inactive.
Tas2r143 #1 showed GFP, % of control 99.3; viability (ATP), % of control 61.9; inactive.
With knock-down of Tas2r143 #2, the record shows GFP, % of control 92.1; viability (ATP), % of control 75.5; inactive.
For Tas2r143 #3, the entry reads GFP, % of control 37.8; viability (ATP), % of control 33.6; inactive.
Knock-down of Tas2r136 #1 came out at: GFP, % of control 115; viability (ATP), % of control 79.6; inactive.
Depletion of Tas2r136 #2 gave: GFP, % of control 65.9; viability (ATP), % of control 80.5; inactive.
Tas2r136 #3 showed GFP, % of control 79.3; viability (ATP), % of control 37.1; inactive.
Depletion of Spry1 #1 resulted in: GFP, % of control 43.5; viability (ATP), % of control 69.7; inactive.
Silencing of Spry1 #2 came out at: GFP, % of control 39.2; viability (ATP), % of control 35; inactive.
Spry1 #3 scored GFP, % of control 58.4; viability (ATP), % of control 68.5; inactive.
With knock-down of Defb8 #1 the results were GFP, % of control 37.2; viability (ATP), % of control 51.9; inactive.
Defb8 #2 showed GFP, % of control 84.1; viability (ATP), % of control 96.7; inactive.
Defb8 #3 showed GFP, % of control 93.2; viability (ATP), % of control 85.5; inactive.

A run of entries of the results above, as a working copy:
Klra8 #2 — GFP, % of control: 154; viability (ATP), % of control: 94.5; activity call: active
Klra8 #3 — GFP, % of control: 61.9; viability (ATP), % of control: 65.2; activity call: inactive
Rad51c #1 — GFP, % of control: 94.4; viability (ATP), % of control: 51.2; activity call: inactive
Rad51c #2 — GFP, % of control: 78.1; viability (ATP), % of control: 92.3; activity call: inactive
Rad51c #3 — GFP, % of control: 54.1; viability (ATP), % of control: 42.3; activity call: inactive

More results follow:
Simc1 #1 scored GFP, % of control 73; viability (ATP), % of control 74.9; inactive.
Simc1 #2 showed GFP, % of control 35.9; viability (ATP), % of control 56.8; inactive.
Depletion of Simc1 #3 resulted in: GFP, % of control 95.9; viability (ATP), % of control 70.7; inactive.
With knock-down of Tnfrsf19 #1 the results were GFP, % of control 66.7; viability (ATP), % of control 72.1; inactive.
Depletion of Tnfrsf19 #2 resulted in: GFP, % of control 37.9; viability (ATP), % of control 55.9; inactive.
Knock-down of Tnfrsf19 #3 came out at: GFP, % of control 72.2; viability (ATP), % of control 63.8; inactive.
After knock-down of Or8b55 #1 the results were GFP, % of control 91.5; viability (ATP), % of control 41.8; inactive.
For Or8b55 #2, the entry reads GFP, % of control 57.5; viability (ATP), % of control 57.9; inactive.
Knock-down of Or8b55 #3 gave: GFP, % of control 70.9; viability (ATP), % of control 85.6; inactive.
After knock-down of Ly75 #1 the results were GFP, % of control 106; viability (ATP), % of control 92; inactive.
With knock-down of Ly75 #2, the record shows GFP, % of control 151; viability (ATP), % of control 88.3; active.
Silencing of Ly75 #3 resulted in: GFP, % of control 82.4; viability (ATP), % of control 69.2; inactive.
Knock-down of Or6c217 #1 gave: GFP, % of control 70.4; viability (ATP), % of control 76.8; inactive.
For Or6c217 #2, the entry reads GFP, % of control 67.3; viability (ATP), % of control 44.2; inactive.
Or6c217 #3 scored GFP, % of control 81.4; viability (ATP), % of control 77.5; inactive.
For Mepce #1 the deposit lists GFP, % of control 88.6; viability (ATP), % of control 91.5; inactive.
Against Mepce #2, the values are GFP, % of control 74.6; viability (ATP), % of control 78.4; inactive.
Against Zdhhc15 #1, the values are GFP, % of control 64.5; viability (ATP), % of control 51.1; inactive.
Depletion of Zdhhc15 #2 came out at: GFP, % of control 89.9; viability (ATP), % of control 85.5; inactive.
Zdhhc15 #3 gave GFP, % of control 69.4; viability (ATP), % of control 67.4; inactive.
